Results from cells or extracts need not show a direct contact.
What follows are sequences tested against CREB (endogenous, 3T3-L1 fibroblast nuclear extract) (Mus musculus) (UniProt Q01147) (assay: EMSA). Conditions: antibody supershift, 5 ug nuclear extract; protein in an extract; label: 32P.

Protein sequences, listed by entry. Tags and fused reporters are not part of them. Lines headed by an entry give the natural chain unless they say otherwise; changes in a name come on top.
UniProt Q01147: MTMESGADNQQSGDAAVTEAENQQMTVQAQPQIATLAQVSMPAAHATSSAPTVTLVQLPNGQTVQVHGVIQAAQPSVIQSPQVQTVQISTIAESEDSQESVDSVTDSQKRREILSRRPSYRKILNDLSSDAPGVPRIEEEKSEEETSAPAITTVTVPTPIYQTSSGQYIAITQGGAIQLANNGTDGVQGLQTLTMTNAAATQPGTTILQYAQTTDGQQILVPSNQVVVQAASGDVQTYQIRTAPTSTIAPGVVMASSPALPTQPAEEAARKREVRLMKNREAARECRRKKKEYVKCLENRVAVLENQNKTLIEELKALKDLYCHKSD

Row | Sequence | binding result
1 | CAGCCAAGCTGTCAGCCCAT (double strand) [FAS promoter putative CRE] | binds
2 | AAAACATGACTCAGAGGAA (double strand) [FABP (aP2/422) promoter putative CRE] | binds
3 | GGCCCCTTACGTCAGAGGCG (double strand) [PEPCK promoter CRE] | binds
4 | GCGGGCTGGCGTCACCCGCG (double strand) [CEBP beta promoter putative CRE] | binds
